Measured data: PubChem BioAssay AID652243 (Drosophila RNAi Screening Center, 2013)
The screen tested about 24,000 reagents; this is an unselected part of those with a known target gene and a result. Over the whole deposit, 246 (1%) got an active call. 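Plates not normalised; calls are printed but the firefly/Renilla ratio behind them is not deposited; fold cut for lowering reported inconsistently.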 The raw values are shown without normalisation. No sequences are given here. Not given: the amount of reagent.

Purpose: 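Fly regulators of androgen-dependent reporter output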 (primary screen)
Cells: Drosophila S2R+ cells
Reagents: long dsRNA against Drosophila genes
Timing: 72 h (48 h, then 24 h hormone)
Treatment: synthetic androgen R1881 at 10 nM for 24 h
Detection: 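Per-well raw luminescence of the androgen-driven firefly reporter and of the Renilla control, two replicates each, without normalisation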
Direction: firefly reporter light: higher = more light from androgen-responsive reporter; Renilla control light: higher = more constitutive control signal (cell number, transfection)
Call rule: 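Hit when the log firefly-to-Renilla ratio dropped or increased by a fixed fold versus the mean of GFP or LacZ controls across duplicate plates; lowering cut given as 1.5 and as 3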
Calls: active = hit: reporter lowered or raised; inactive = no hit

CG7568 (GeneID 43482) [DRSC16259] — firefly reporter light, replicate 1 = 2.63e5; firefly reporter light, replicate 2 = 1.76e5; Renilla control light, replicate 1 = 2.09e6; Renilla control light, replicate 2 = 2.25e6; Call = inactive
CG7568 (GeneID 43482) [DRSC28378] — firefly reporter light, replicate 1 = 4.34e5; firefly reporter light, replicate 2 = 7.96e5; Renilla control light, replicate 1 = 1.25e6; Renilla control light, replicate 2 = 1.99e6; Call = inactive
nrv3 (GeneID 35408) [DRSC03097] — firefly reporter light, replicate 1 = 3.91e5; firefly reporter light, replicate 2 = 3.43e5; Renilla control light, replicate 1 = 2.76e6; Renilla control light, replicate 2 = 3.27e6; Call = inactive
RpL27 (GeneID 43103) [DRSC15638] — firefly reporter light, replicate 1 = 1.32e5; firefly reporter light, replicate 2 = 1.27e5; Renilla control light, replicate 1 = 1.28e6; Renilla control light, replicate 2 = 9.86e5; Call = inactive
RpL27 (GeneID 43103) [DRSC25890] — firefly reporter light, replicate 1 = 2.29e5; firefly reporter light, replicate 2 = 2.67e5; Renilla control light, replicate 1 = 5.82e5; Renilla control light, replicate 2 = 5.32e5; Call = inactive
ng1 (GeneID 31300) [DRSC18802] — firefly reporter light, replicate 1 = 2.53e5; firefly reporter light, replicate 2 = 3.56e5; Renilla control light, replicate 1 = 3.04e6; Renilla control light, replicate 2 = 2.95e6; Call = inactive
Ance-2 (GeneID 34806) [DRSC02539] — firefly reporter light, replicate 1 = 1.93e5; firefly reporter light, replicate 2 = 1.94e5; Renilla control light, replicate 1 = 1.13e6; Renilla control light, replicate 2 = 1.65e6; Call = inactive
CG7218 (GeneID 42165) [DRSC16216] — firefly reporter light, replicate 1 = 83750; firefly reporter light, replicate 2 = 52553; Renilla control light, replicate 1 = 5.06e5; Renilla control light, replicate 2 = 6.85e5; Call = inactive
CG7218 (GeneID 42165) [DRSC27550] — firefly reporter light, replicate 1 = 2.40e5; firefly reporter light, replicate 2 = 2.96e5; Renilla control light, replicate 1 = 4.27e5; Renilla control light, replicate 2 = 7.88e5; Call = inactive
vers (GeneID 39374) [DRSC23232] — firefly reporter light, replicate 1 = 6.64e5; firefly reporter light, replicate 2 = 5.79e5; Renilla control light, replicate 1 = 1.18e6; Renilla control light, replicate 2 = 8.53e5; Call = inactive
GC1 (GeneID 41448) [DRSC15322] — firefly reporter light, replicate 1 = 3.74e5; firefly reporter light, replicate 2 = 3.67e5; Renilla control light, replicate 1 = 2.86e6; Renilla control light, replicate 2 = 2.73e6; Call = inactive
GC1 (GeneID 41448) [DRSC25627] — firefly reporter light, replicate 1 = 6.74e5; firefly reporter light, replicate 2 = 6.25e5; Renilla control light, replicate 1 = 6.44e5; Renilla control light, replicate 2 = 7.06e5; Call = inactive
Or85a (GeneID 40991) [DRSC16764] — firefly reporter light, replicate 1 = 1.15e5; firefly reporter light, replicate 2 = 1.06e5; Renilla control light, replicate 1 = 2.75e6; Renilla control light, replicate 2 = 1.83e6; Call = inactive
Smyd4-3 (GeneID 36234) [DRSC07041] — firefly reporter light, replicate 1 = 1.11e6; firefly reporter light, replicate 2 = 7.95e5; Renilla control light, replicate 1 = 2.00e6; Renilla control light, replicate 2 = 1.04e6; Call = inactive
Smyd4-3 (GeneID 36234) [DRSC28851] — firefly reporter light, replicate 1 = 5.66e5; firefly reporter light, replicate 2 = 6.31e5; Renilla control light, replicate 1 = 1.36e6; Renilla control light, replicate 2 = 1.55e6; Call = inactive
CG9525 (GeneID 34217) [DRSC03249] — firefly reporter light, replicate 1 = 1.88e5; firefly reporter light, replicate 2 = 1.68e5; Renilla control light, replicate 1 = 1.48e6; Renilla control light, replicate 2 = 1.33e6; Call = inactive
CG18661 (GeneID 50438) [DRSC02690] — firefly reporter light, replicate 1 = 1.10e5; firefly reporter light, replicate 2 = 1.52e5; Renilla control light, replicate 1 = 1.16e6; Renilla control light, replicate 2 = 9.37e5; Call = inactive
Cog2 (GeneID 41870) [DRSC16987] — firefly reporter light, replicate 1 = 1.83e5; firefly reporter light, replicate 2 = 1.64e5; Renilla control light, replicate 1 = 1.97e6; Renilla control light, replicate 2 = 2.14e6; Call = inactive
Ir87a (GeneID 41654) [DRSC14836] — firefly reporter light, replicate 1 = 52938; firefly reporter light, replicate 2 = 68068; Renilla control light, replicate 1 = 9.72e5; Renilla control light, replicate 2 = 7.75e5; Call = inactive
Ir87a (GeneID 41654) [DRSC27649] — firefly reporter light, replicate 1 = 2.00e5; firefly reporter light, replicate 2 = 1.69e5; Renilla control light, replicate 1 = 2.20e5; Renilla control light, replicate 2 = 3.77e5; Call = inactive
HERC2 (GeneID 33035) [DRSC20566] — firefly reporter light, replicate 1 = 2.04e5; firefly reporter light, replicate 2 = 1.38e5; Renilla control light, replicate 1 = 9.84e5; Renilla control light, replicate 2 = 4.87e5; Call = inactive
loopin-1 (GeneID 36847) [DRSC06888] — firefly reporter light, replicate 1 = 8.19e5; firefly reporter light, replicate 2 = 9.90e5; Renilla control light, replicate 1 = 1.77e6; Renilla control light, replicate 2 = 1.57e6; Call = inactive
loopin-1 (GeneID 36847) [DRSC24892] — firefly reporter light, replicate 1 = 8.55e5; firefly reporter light, replicate 2 = 9.69e5; Renilla control light, replicate 1 = 7.72e5; Renilla control light, replicate 2 = 9.35e5; Call = inactive
CG34265 (GeneID 5740186) [DRSC38852] — firefly reporter light, replicate 1 = 8.09e5; firefly reporter light, replicate 2 = 7.65e5; Renilla control light, replicate 1 = 1.47e6; Renilla control light, replicate 2 = 1.70e6; Call = inactive
CG14879 (GeneID 41982) [DRSC15003] — firefly reporter light, replicate 1 = 1.85e5; firefly reporter light, replicate 2 = 1.80e5; Renilla control light, replicate 1 = 2.71e6; Renilla control light, replicate 2 = 2.21e6; Call = inactive
CG14879 (GeneID 41982) [DRSC28083] — firefly reporter light, replicate 1 = 4.55e5; firefly reporter light, replicate 2 = 4.10e5; Renilla control light, replicate 1 = 1.52e6; Renilla control light, replicate 2 = 1.25e6; Call = inactive
Nup62 (GeneID 36830) [DRSC06970] — firefly reporter light, replicate 1 = 8.16e5; firefly reporter light, replicate 2 = 9.20e5; Renilla control light, replicate 1 = 1.52e6; Renilla control light, replicate 2 = 1.59e6; Call = inactive

Taken from above.
Value of Ance-2 (GeneID 34806) [DRSC02539] under “Renilla control light, replicate 2”: 1.65e6
For “Call”, Cog2 (GeneID 41870) [DRSC16987] is entered as inactive
